Test results from publication PMC8062530.
These are yes or no findings as the source states them, for the method shown. Some entries that bind do so weakly or less than the wild type. Where a sequence is shown, tags or fusion partners need not be part of it.

The chains behind the UniProt entries cited, without tags or fusion partners. Residues count along the entry.
UniProt Q9Y336, residues 18-348: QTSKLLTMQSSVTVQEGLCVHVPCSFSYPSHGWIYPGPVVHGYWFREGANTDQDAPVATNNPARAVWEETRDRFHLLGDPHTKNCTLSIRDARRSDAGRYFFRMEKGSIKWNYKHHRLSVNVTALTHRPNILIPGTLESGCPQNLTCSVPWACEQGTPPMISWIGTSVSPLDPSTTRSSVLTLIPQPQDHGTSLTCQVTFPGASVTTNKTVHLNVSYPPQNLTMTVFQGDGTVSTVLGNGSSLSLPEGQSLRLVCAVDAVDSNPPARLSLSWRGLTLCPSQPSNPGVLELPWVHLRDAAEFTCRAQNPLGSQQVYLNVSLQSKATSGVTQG

Tests used:
Assay in all cases: BLI; Fc-fusions of the Siglec proteins immobilised on Protein A biosensors (ForteBio) at 5 µg/mL; PTGFRN extracellular domain in 2-fold serial dilutions starting at 100 µg/mL; equilibrium dissociation constants calculated with ForteBio Data Analysis software v. 10.0; both purified
Siglec-10 Fc-fusion = molecular target: T1, Siglec-10 Fc-fusion (UniProt Q96LC7)
T1 sequence: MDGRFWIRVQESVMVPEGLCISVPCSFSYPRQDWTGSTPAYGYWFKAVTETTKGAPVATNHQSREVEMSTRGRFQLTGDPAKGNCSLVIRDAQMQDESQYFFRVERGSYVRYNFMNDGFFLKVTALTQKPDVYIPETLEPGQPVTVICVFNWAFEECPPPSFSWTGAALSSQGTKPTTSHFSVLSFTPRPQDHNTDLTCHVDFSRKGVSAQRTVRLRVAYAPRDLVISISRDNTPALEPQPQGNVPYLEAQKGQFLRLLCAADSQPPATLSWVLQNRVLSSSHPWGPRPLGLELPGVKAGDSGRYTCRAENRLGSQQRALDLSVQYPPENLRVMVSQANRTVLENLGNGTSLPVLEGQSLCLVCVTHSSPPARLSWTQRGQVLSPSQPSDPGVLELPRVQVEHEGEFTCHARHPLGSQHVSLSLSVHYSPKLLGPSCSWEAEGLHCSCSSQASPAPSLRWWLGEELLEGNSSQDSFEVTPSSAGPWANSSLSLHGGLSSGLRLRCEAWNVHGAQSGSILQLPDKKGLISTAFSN

Siglec-9 Fc-fusion = Siglec-9 Fc-fusion (UniProt Q9Y336)
Siglec-14 Fc-fusion = molecular target: T2, Siglec-14 Fc-fusion (UniProt Q08ET2)
T2 sequence: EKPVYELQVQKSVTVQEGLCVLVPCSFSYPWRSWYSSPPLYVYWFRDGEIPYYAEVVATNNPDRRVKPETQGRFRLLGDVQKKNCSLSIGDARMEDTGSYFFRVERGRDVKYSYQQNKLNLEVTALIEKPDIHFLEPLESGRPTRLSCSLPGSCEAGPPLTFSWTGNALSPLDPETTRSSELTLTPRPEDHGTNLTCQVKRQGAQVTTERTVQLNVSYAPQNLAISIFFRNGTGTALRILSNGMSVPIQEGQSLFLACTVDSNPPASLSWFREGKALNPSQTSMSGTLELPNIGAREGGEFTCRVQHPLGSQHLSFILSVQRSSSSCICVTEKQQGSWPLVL

Measured: binding

B1: extracellular domain of PTGFRN (aa 26-832) with a C-terminal histidine tag (domain or fragment, UniProt Q9P2B2 26-832)
chain: VPTATLVRVVGTELVIPCNVSDYDGPSEQNFDWSFSSLGSSFVELASTWEVGFPAQLYQERLQRGEILLRRTANDAVELHIKNVQPSDQGHYKCSTPSTDATVQGNYEDTVQVKVLADSLHVGPSARPPPSLSLREGEPFELRCTAASASPLHTHLALLWEVHRGPARRSVLALTHEGRFHPGLGYEQRYHSGDVRLDTVGSDAYRLSVSRALSADQGSYRCIVSEWIAEQGNWQEIQEKAVEVATVVIQPSVLRAAVPKNVSVAEGKELDLTCNITTDRADDVRPEVTWSFSRMPDSTLPGSRVLARLDRDSLVHSSPHVALSHVDARSYHLLVRDVSKENSGYYYCHVSLWAPGHNRSWHKVAEAVSSPAGVGVTWLEPDYQVYLNASKVPGFADDPTELACRVVDTKSGEANVRFTVSWYYRMNRRSDNVVTSELLAVMDGDWTLKYGERSKQRAQDGDFIFSKEHTDTFNFRIQRTTEEDRGNYYCVVSAWTKQRNNSWVKSKDVFSKPVNIFWALEDSVLVVKARQPKPFFAAGNTFEMTCKVSSKNIKSPRYSVLIMAEKPVGDLSSPNETKYIISLDQDSVVKLENWTDASRVDGVVLEKVQEDEFRYRMYQTQVSDAGLYRCMVTAWSPVRGSLWREAATSLSNPIEIDFQTSGPIFNASVHSDTPSVIRGDLIKLFCIITVEGAALDPDDMAFDVSWFAVHSFGLDKAPVLLSSLDRKGIVTTSRRDWKSDLSLERVSVLEFLLQVHGSEDQDFGNYYCSVTPWVKSPTGSWQKEAEIHSKPVFITVKMDVLNAFKYP
binds: all assays above
